Test results published in PubChem BioAssay AID2685 (National Center for Advancing Translational Sciences (NCATS), 2010).
Hit rate of the full screen: of about 320,000 compounds, about 2,100 (0.66%) were called active. The inconclusive results got no clear call from the source; some entries with a clear call stand among them for comparison. The call rests on the fitted dose curve; in most records, active means well fitted inhibition curve with a large enough effect in the signal ratio, with a control signal flat (not every such curve was filed as active); inconclusive means small, poorly fitted or top-dose-only effect, or effect the other way, or a change in a side signal; inactive means flat fitted curve, though single readings scatter; the % refers to the signal ratio. Where the call is inconclusive, the potency comes from a doubtful curve fit.
On the % scale 0 is the no-effect control and ±100 the full control effect; potency means the concentration at half of the fitted maximal effect.

Experiment: qHTS Assay for Lipid Storage Modulators in Drosophila S3 Cells
Conditions: BODIPY lipid droplet fluorescence, 18-24 h, cells fed with added oleic acid; lipid storage change, negative = inhibition: at 46.1 µM (top of the series) unless noted
Outline: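 Laser-scanning cytometry quantifies lipid droplet accumulation (500–530 nm total intensity; droplet/cell object ratio) in oleic acid-fed (400 uM added) Drosophila S3 cells treated with a concentration series. 20 uM Triacsin C defined 100% inhibition.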
For `COc1cc(C(=O)NCCC(=O)N2CCN(C)CC2)cc(OC)c1OC`, the lipid storage change, negative = inhibition was inconclusive: 10.5%. In the case of `Cc1ccc(C)c(NC(=O)CSc2nc3c(oc4ccccc43)c(=O)n2-c2ccccc2)c1`, the lipid storage change, negative = inhibition is reported as inconclusive: 6.19%. In the case of `Clc1ccc(OCCn2ccnc2)c(Br)c1`, the Potency is reported as inconclusive: 14.6 µM [activator, partial curve]. With `O=S(=O)(c1cccc2cccnc12)N1CCN(Cc2ccc3c(c2)OCO3)CC1` the Potency was inconclusive: 6.51 µM [activator, single point]. For `O=C(c1ccc(CS(=O)c2ccccc2Cl)o1)N1CCCCCC1` (centres undefined), the “outcome” value was “inactive [at 46.1 µM]”. With `Cc1ccc(N2C(=O)c3ccccc3C2(O)c2ncc[nH]2)cc1` (centres undefined) the lipid storage change, negative = inhibition was inconclusive: 120%. In the case of `COc1ccc([C@]23Cc4ccccc4C(O2)C2=C(CCCC2=O)O3)cc1`, the lipid storage change, negative = inhibition is reported as inconclusive: 7.16% [at 9.22 µM]. In the case of `COCC(=O)N(Cc1cc2cc(C)ccc2[nH]c1=O)c1cccc(C)c1C`, the Potency is reported as inconclusive: 29.1 µM [activator, single point]. With `COc1ccc([N+](=O)[O-])cc1N(CC(=O)NC1CCCC1)S(C)(=O)=O` the lipid storage change, negative = inhibition was inconclusive: 4.11%. For `COc1cc2c(cc1NC(=O)CCC(=O)O)oc1ccccc12`, the lipid storage change, negative = inhibition was inconclusive: 3.9%. With `COC(=O)c1ccc(OCCCCN(C)Cc2ccccc2)cc1` the lipid storage change, negative = inhibition was inconclusive: 54.3%. For `Cc1ccc(S(=O)(=O)C2(C(=O)N3CCCCCC3)CC2)cc1`, the Potency was inconclusive: 25.9 µM [falling, partial curve, poor fit]. In the case of `Cc1ccc(N=Cc2c(O)ccc3ccccc23)cc1F`, the lipid storage change, negative = inhibition is reported as inconclusive: -15.5%. In the case of `O=S(=O)(Nc1ccccn1)c1ccc(-n2cccn2)cc1`, the lipid storage change, negative = inhibition is reported as inconclusive: 111%. In the case of `COc1ccc(S(=O)(=O)Cc2ccc(C(=O)N3CCN(C(=O)c4ccco4)CC3)o2)cc1`, the lipid storage change, negative = inhibition is reported as inconclusive: 30%. With `CC(=O)Nc1c(Nc2ccccc2)c2ccccc2oc1=O` the Potency was inconclusive: 23.1 µM [activator, single point]. With `CCOc1ccc(S(=O)(=O)N2CCOCC2)cc1NC(=O)C1CCC1` the lipid storage change, negative = inhibition was inconclusive: 17.9%. In the case of `C=CCn1c(=O)c(C(=O)NCCc2ccccc2)c(O)c2ccccc21`, the Potency is reported as inconclusive: 1.46 µM [activator, partial curve]. In the case of `O=C1CCC(=O)N1CCc1c[nH]c2ccccc12`, the lipid storage change, negative = inhibition is reported as inconclusive: 1.68%. With `Cn1nc(C(F)(F)F)c2cc(NC(=O)OCc3ccc(F)cc3)sc21` the Potency was inconclusive: 29.1 µM [falling, single point]. For `COc1cccc(-n2c(SCC(=O)Nc3cc(C)on3)nc3c([nH]c4ccccc43)c2=O)c1`, the Potency was inconclusive: 10.3 µM [activator, partial curve]. In the case of `Cc1ccccc1OCCn1c(CCNC(=O)C(C)C)nc2ccccc21`, the lipid storage change, negative = inhibition is reported as inconclusive: 9.4%. With `O=C(c1cc(S(=O)(=O)N2CCOCC2)ccc1Cl)N1CCN(c2ccccn2)CC1` the Potency was inconclusive: 0.146 µM [rising, full curve, poor fit]. For `COc1ccc(C(=O)COC(=O)c2cnc(C)cn2)cc1OC`, the Potency was inconclusive: 9.2 µM [activator, partial curve, poor fit]. In the case of `COc1ccc(N(C(=O)C2CCCCC2)C2C=CS(=O)(=O)C2)c(OC)c1` (centres undefined), the Potency is reported as inconclusive: 6.51 µM [rising, single point]. With `Cc1cc([N+](=O)[O-])ccc1-c1ccc(/C=N/NC(=O)Cc2ccccc2)o1` the lipid storage change, negative = inhibition was inconclusive: -29.5%. For `COc1cc(C(=O)N2CCN(C(=O)Cc3ccccc3)CC2)cc(OC)c1OC`, the lipid storage change, negative = inhibition was inconclusive: 21%. For `Cc1ccc(S(=O)(=O)N2CCC(=O)N(CCOC(=O)Nc3cc(C)cc(C)c3)CC2)cc1`, the Potency was inconclusive: 9.2 µM [activator, partial curve]. In the case of `CC(C)C[C@H](NC(=O)[C@@H]1O[C@H]1C(=O)O)C(=O)NCCCCN=C(N)N`, the lipid storage change, negative = inhibition is reported as inconclusive: -9.3%. With `CCOC(=O)CSc1nc2c(c(-c3ccc(C)o3)c1C#N)CCCC2` the Potency was inconclusive: 2.91 µM [falling, full curve, poor fit]. In the case of `CCCC(=O)Nc1nnc(CCc2ccccc2)s1`, the lipid storage change, negative = inhibition is reported as inconclusive: 3.64%. With `Cc1nc(N2CCN(C(=O)c3ccco3)CC2)nc2c1C(=O)CCC2` the Potency was inconclusive: 3.26 µM [falling, partial curve, poor fit]. In the case of `CC1CCN(c2ccc(N3C(=O)C4CCCCC4C3=O)cc2[N+](=O)[O-])CC1` (centres undefined), the lipid storage change, negative = inhibition is reported as inconclusive: -8.57%. With `Cc1ccc(S(=O)(=O)N(C)C)cc1NC(=O)CN1CCCC1` the Potency was inconclusive: 0.116 µM [falling, partial curve, poor fit]. In the case of `COCCNC(=O)CSC1=N/C(=C/c2ccc(Cl)c(Cl)c2)C(=O)N1c1ccccc1F`, the Potency is reported as inconclusive: 29.1 µM [falling, single point]. For `O=C(Nc1cccnc1)OC1CCCC1`, the lipid storage change, negative = inhibition was inconclusive: 14.5%. With `CCCn1nc(NS(=O)(=O)c2ccccc2)c2cc3ccccc3nc21` the lipid storage change, negative = inhibition was inconclusive: 13.3%. With `CN(C)CCCn1cnc2c1c(=O)[nH]c(=O)n2Cc1ccccc1` the lipid storage change, negative = inhibition was inconclusive: -36.2%. In the case of `COc1ccccc1NC(=O)C(C)OC(=O)Cn1cnc2c1c(=O)n(C)c(=O)n2C` (centres undefined), the Potency is reported as inconclusive: 29.1 µM [falling, single point]. For `CCN(C(=O)COC(=O)/C=C/c1cnc2ccccc2n1)C1CCS(=O)(=O)C1` (centres undefined), the Potency was inconclusive: 0.231 µM [falling, full curve, poor fit]. With `O=C(CN(c1cccc(C(F)(F)F)c1)S(=O)(=O)c1ccc(Cl)c([N+](=O)[O-])c1)NCc1ccccc1Cl` the lipid storage change, negative = inhibition was inconclusive: -89.4%. In the case of `CC(=O)c1cccc(NC(=O)N2CCCC2C(=O)NCc2ccc(F)cc2)c1` (centres undefined), the Potency is reported as inconclusive: 23.1 µM [activator, single point]. With `O=C(N/N=C/c1coc2ccccc2c1=O)c1ccncc1` the Potency was inconclusive: 29.1 µM [falling, single point]. For `CCCOc1ccc(C(F)(F)F)cc1NS(=O)(=O)c1ccc(Cl)nc1`, the lipid storage change, negative = inhibition was “inconclusive”. In the case of `COc1cc(/C=N/OCC(=O)NC2CCS(=O)(=O)C2)ccc1OC(F)F` (centres undefined), the lipid storage change, negative = inhibition is reported as inconclusive: 25%. In the case of `COc1cc(/C=N/NC(=O)c2cc(-c3ccccc3OC(C)C)nc3ccccc23)ccc1O`, the lipid storage change, negative = inhibition is reported as inconclusive: -19.8%. For `CCN(C(=O)COC(=O)c1cn(-c2ccccc2)nc1-c1ccccc1)C1CCS(=O)(=O)C1` (centres undefined), the lipid storage change, negative = inhibition was inconclusive: 17.3%. For `CC(C)C(OC(=O)c1ccco1)C(=O)NC1CCCCC1` (centres undefined), the “lipid storage change, negative = inhibition” value was inactive: 4.26%. In the case of `CCOc1ccc2nc(SCC(=O)N(C)C3CCS(=O)(=O)C3)[nH]c2c1` (centres undefined), the lipid storage change, negative = inhibition is reported as inconclusive: -21.7%. In the case of `COc1ccc(-c2nnc3n2CCCCC3)cc1`, the Potency is reported as inconclusive: 20.6 µM [activator, partial curve]. For `Cc1ccc(S(=O)(=O)N2CCC(C(=O)Nc3nnc(C4CCCC4)s3)CC2)cc1`, the “lipid storage change, negative = inhibition” value was inactive: 5.91%. With `O=C(CCNS(=O)(=O)c1cccs1)N1CCc2ccccc2C1` the lipid storage change, negative = inhibition was inconclusive: 0.222%. With `Cc1ccc(S(=O)(=O)NCC(=O)NCc2cc(=O)n(C)c(=O)n2C)cc1C` the lipid storage change, negative = inhibition was inconclusive: 20.3%. For `CCCC1=NN2C(=N)/C(=C\c3cc(C)n(-c4cc(C)cc(C)c4)c3C)C(=O)N=C2S1`, the Potency was inconclusive: 18.4 µM [activator, partial curve]. For `N/C(Cc1ccc([N+](=O)[O-])cc1)=N\OC(=O)c1ccccc1Br`, the Potency was inconclusive: 20.6 µM [activator, single point]. With `COc1cccc(-n2c(SCC(=O)OC(C)C)nnc2-c2cccnc2)c1` the “outcome” value was “inactive [at 46.1 µM]”. For `C=CCc1c(C)nc2c(-c3ccccc3)cnn2c1N1CCOCC1`, the lipid storage change, negative = inhibition was inconclusive: 12.9%. In the case of `CC(=O)N(C)c1ccc(NC(=O)Nc2cccc3ccccc23)cc1`, the lipid storage change, negative = inhibition is reported as inconclusive: -8.14%. In the case of `O=c1cc(-c2ccccc2)[nH]c2[nH]n(-c3ccccc3)c(=O)c12`, the Potency is reported as inconclusive: 6.51 µM [falling, single point]. For `CCc1ccc(Oc2coc3cc(O)ccc3c2=O)cc1`, the lipid storage change, negative = inhibition was inconclusive: 29.8%. In the case of `COc1cc(Cl)ccc1OCc1cc(C(=O)N2CCCCC2c2cccnc2)no1` (centres undefined), the lipid storage change, negative = inhibition is reported as inconclusive: 7.27%. In the case of `COc1cccc(C(=O)/C=C/Nc2ccc(S(=O)(=O)Nc3ncccn3)cc2)c1`, the lipid storage change, negative = inhibition is reported as inconclusive: 203%. In the case of `O=C(COc1ccccc1)NCc1nnc(SCC(=O)Nc2nccs2)n1-c1ccccc1`, the lipid storage change, negative = inhibition is reported as inconclusive: -15.2%. With `O=Cc1ccc(Cl)c(Cl)c1` the Potency was inconclusive: 25.9 µM [falling, single point]. In the case of `COC(=O)c1ccc(NC(=O)C2CCCN2S(=O)(=O)c2ccc(OC)cc2)cc1` (centres undefined), the lipid storage change, negative = inhibition is reported as inconclusive: -22.1%. With `Cc1cccc2cc(CN(CCN3CCOCC3)C(=O)NCc3ccccc3)c(=O)[nH]c12` the Potency was inconclusive: 29.1 µM [activator, single point]. For `O=C(COC(=O)c1cccs1)NCc1ccccc1`, the lipid storage change, negative = inhibition was inconclusive: -30.5%. For `COc1ccccc1N(CC(O)Cn1nc(C)cc1C)S(=O)(=O)c1ccccc1` (centres undefined), the lipid storage change, negative = inhibition was inconclusive: 0.919%. With `CC(C)CN1CCC(=O)N(CCC#N)CC1` the Potency was inconclusive: 0.58 µM [activator, single point]. For `Fc1ccccc1NC(=S)Nc1ccc(CN2CCOCC2)cc1`, the lipid storage change, negative = inhibition was inconclusive: -10.5%. With `NS(=O)(=O)c1ccc(N2CCN(CCOc3ccc(Cl)cc3)CC2)nc1` the lipid storage change, negative = inhibition was inconclusive: -19.6%. With `CN(Cc1ccccc1Cl)C(=O)C1CCC(=O)N(CCc2cccc(F)c2)C1` (centres undefined) the Potency was inconclusive: 20.6 µM [falling, single point]. In the case of `CCN(CC)S(=O)(=O)c1cccc(C(=O)N2CCCCC2)c1`, the lipid storage change, negative = inhibition is reported as inconclusive: 19.5%. In the case of `CCOc1ccc(NC(=O)CN(C)C(=O)c2nc3nc(C)cc(C)n3n2)cc1OCC`, the Potency is reported as inconclusive: 9.2 µM [activator, single point].
